Test results published in article PMC8889267.
These are yes or no findings as the source states them, for the method shown. In cells and extracts the contact can be indirect. These calls come from enrichment with a bait or labelling near it, and not all partners need be listed.

T1: CLPC1-TRAP-STREPII (Arabidopsis thaliana) (UniProt Q9FI56)
T1 sequence: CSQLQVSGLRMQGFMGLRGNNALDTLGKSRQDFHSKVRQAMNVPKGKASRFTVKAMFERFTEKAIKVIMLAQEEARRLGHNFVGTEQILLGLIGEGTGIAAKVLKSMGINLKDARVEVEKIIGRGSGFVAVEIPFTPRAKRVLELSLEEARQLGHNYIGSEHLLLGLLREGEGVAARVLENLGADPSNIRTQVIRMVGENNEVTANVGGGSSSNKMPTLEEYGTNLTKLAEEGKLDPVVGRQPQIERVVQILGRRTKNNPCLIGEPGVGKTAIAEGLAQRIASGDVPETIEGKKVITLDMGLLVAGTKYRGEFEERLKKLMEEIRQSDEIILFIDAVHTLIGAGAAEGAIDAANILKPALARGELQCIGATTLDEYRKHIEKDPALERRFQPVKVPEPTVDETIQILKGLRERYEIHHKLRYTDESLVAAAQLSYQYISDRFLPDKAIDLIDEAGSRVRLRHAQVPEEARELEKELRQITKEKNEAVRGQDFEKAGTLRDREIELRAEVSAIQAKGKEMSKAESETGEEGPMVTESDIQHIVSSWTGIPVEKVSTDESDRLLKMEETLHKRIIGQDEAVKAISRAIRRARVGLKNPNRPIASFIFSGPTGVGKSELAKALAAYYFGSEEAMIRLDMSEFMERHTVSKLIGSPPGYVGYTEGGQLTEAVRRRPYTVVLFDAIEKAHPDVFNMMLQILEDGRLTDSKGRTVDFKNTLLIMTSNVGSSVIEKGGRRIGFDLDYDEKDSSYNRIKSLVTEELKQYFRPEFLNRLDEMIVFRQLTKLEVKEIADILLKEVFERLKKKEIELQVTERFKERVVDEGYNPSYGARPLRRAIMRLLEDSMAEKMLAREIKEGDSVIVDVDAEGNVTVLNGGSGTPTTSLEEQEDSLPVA

B1: fibrillin 1a (FBN1a) (protein, UniProt O81439 56-318)
chain: ATDIDDEWGQDGVERVFASSSTVSVADKAIESVEETERLKRSLADSLYGTDRGLSVSSDTRAEISELITQLESKNPTPAPNEALFLLNGKWILAYTSFVGLFPLLSRRIEPLVKVDEISQTIDSDSFTVQNSVRFAGPFSTTSFSTNAKFEIRSPKRVQIKFEQGVIGTPQLTDSIEIPESVEVLGQKIDLNPIKGLLTSVQDTASSVARTISNQPPLKFSLPSDNTQSWLLTTYLDKDLRISRGDGGSVYVLIKEGSSLLNP
B2: arogenate dehydratase 4 (ADT4) (protein, UniProt O22241 35-424)
chain: CGYRSESFSFPNGVSVSRSDWQSSCAILSSKVASVENTGGLADKIAAVNGHTNGSVNLGLVAVESTNGKLAPAQPLTITDLSPAPLHGSSLRVAYQGVPGAYSEAAAGKAYPNCDAIPCDQFDVAFQAVELWIADRAVLPVENSLGGSIHRNYDLLLRHRLHIVGEVQIPVHHCLLALPGVRTDCVSRVISHPQALAQTEHSLDVLTPHAAREAFHDTAAAAEYISANDLHDTAAVASARAAELYNLQILADGIQDDPGNVTRFLMLAREPIIPRTDRPFKTSIVFAAQEHKGTSVLFKVLSAFAFRDISLTKIESRPHHNRPLRVVGDGSFGTSKNFEYMFYVDFEASMAEPRAQNALAEVQEYTSFLRVLGSYPMDMTPWSMTSTEEA
B3: GluTR binding protein (GBP or PGR7) (protein, UniProt Q9LU39 43-317)
chain: SVSTTLDTPATASTHKPFPAEVSRSIMELSSVGTLSTLTHDGWPLGVGVRFAVDKDGTPVLCLNRSVSPDKRSALHVQLEQCGLRTPQCTIQGSIGRPGDDTVLKRLSATWREKFGEEVKEDSLYVVAVDRVLQMEDFMEDGIWVASSDYKNASPDPLRDIAEDIVNQINANNMEDIFRFCNVYVDLDFVVSETKMIWMDRLGFDLRVWSPRGVYDVRIPFPMEVTDEKGAKSSFNGMSQLAWEVEKSYCPADFNKVKLLKQVVGSSHSHKGGGQ
B4: arogenate dehydratase 2 (ADT2) (protein, UniProt Q9SSE7 67-381)
chain: AMEVKKIFEDSPLLPKPLSSNQLTESVSNGSRVRVAYQGVRGAYSESAAEKAYPNCEAVPCEEFDTAFEAVERWLVDRAVLPIENSLGGSIHRNYDLLLRHNLHIVGEVKLAVRHCLLANHGVNIEDLRRVLSHPQALAQCENTLTKLGLVREAVDDTAGAAKQIAFENLNDAAAVASEKAAKIYGLNIVAKDIQDDCDNVTRFLMLAREPIIPGTNRLFKTSIVFSLEEGPGVLFKALAVFALRQINLTKIESRPLRKHPLRASGGLKYFDYLFYVDFEASMADEVAQNALRHLEEFATFLRVLGSYPVDTTML
B5: ribose-phosphate pyrophosphokinase (AT2G44530.1) (protein, UniProt O64888 34-394)
chain: CNAADPYKFDGGNSAGFHLLTGDTVPASFSRTRLEDSIYQNTTRLRIFSGTANPILAQEISCYLGLDLGKIKIKRFADGEIYVQLQESVRGCDVFLVQPTCPPANENLMELLVMIDACRRASAKTITAVIPYFGYARADRKTQGRESIAAKLVANLITQSGADRVLACDLHSGQSMGYFDIPVDHVYGQPVILDYLASKAISSEDLVVVSPDVGGVARARAFAKKLSDAPLAIVDKRRHGHNVAEVMNLIGDVKGKVAIMVDDMIDTAGTISKGAALLHQEGAREVYACTTHAVFSPPAISRLSSGLFQEVIITNTIPLSEKNYFPQLTVLSVANLLGETIWRVHDDCSGAIEPFSTLGID
B6: ribose-phosphate pyrophosphokinase 1/phosphoribosyl diphosphate synthetase 1 (PRSI) (protein, UniProt Q42581 50-403)
chain: CDMPESLNVGNGNPSIPIINERTLPKFLESARMEKSVNRTNTRLKLFSGTANPALAQEIAWYMGLDLGKVNIKRFADGEIYVQLQESVRGCDVYLVQPTCTPTNENLMELLIMVDACRRASAKKVTAVIPYFGYARADRKTQGRESIAAKLVANLITEAGADRVLACDLHSGQSMGYFDIPVDHVYCQPVILDYLASKSIPSEDLVVVSPDVGGVARARAFAKKLSDAPLAIVDKRRSGHNVAEVMNLIGDVRGKVAIMVDDMIDTAGTIVKGAALLHQEGAREVYACCTHAVFSPPAIERLSGGLLQEVIVTNTLPVAEKNYFPQLTILSVANLLGETIWRVHDDSSVSSIFL

target: T1, CLPC1-TRAP-STREPII (Arabidopsis thaliana); test: affinity purification with mass spectrometry; STREPII-tagged CLPC1-WT or CLPC1-TRAP from soluble leaf proteome of transgenic Arabidopsis rosettes, nondenaturing; StrepTactinXT beads, 50 mM Hepes-KOH pH 8.0, 15% glycerol, 10 mM MgCl2, 75 mM NaCl, eluted with 2.5 mM biotin; SDS-PAGE, in-gel trypsin digest, LC-MS/MS, spectral counting; three biological replicates; CGEP-STREP eluates as negative control

binding, binds:
B1, B2, B3, B4, B5, B6
